This note sets out measurements from PubChem BioAssay AID2685 (National Center for Advancing Translational Sciences (NCATS), 2010).

Structures are written as SMILES. This is one part of the list. These are further read-outs of the screen, such as a control signal, another cell line or another target. No call is given for them. Compounds called inactive in the main read-out are mostly missing here. Words in brackets tell the shape of the fitted curve; partial curves, single points and poor fits give uncertain potencies.

The assay can be described thus: qHTS Assay for Lipid Storage Modulators in Drosophila S3 Cells.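 As to cell number change: cells counted by Cell Tracker Red CMTPX staining in the red channel.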 Conditions: BODIPY lipid droplet fluorescence, 18-24 h; for cell number change: measured here: cell count max response, cells fed with added oleic acid. The essentials:
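Drosophila S3 cells got compounds at several concentrations plus oleic acid (400 uM solution). Laser-scanning cytometry with 488 nm excitation read lipid droplets at 500-530 nm and cells at 575-640 nm. Percent activity was relative to 20 uM Triacsin C.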

Setting [1] is: measured here: cell number channel AC50, cells fed with added oleic acid.
[2] abbreviates: measured here: lipid fluorescence (Fed channel) AC50, cells fed with added oleic acid.

For the molecule `Cc1ccc(C)c(CN2C(=O)CSc3ccc(C(=O)N4CCCC4)cc32)c1`, the cell number change was -31%. Besides, the AC50 under setting [1] is 16.4 µM [falling, partial curve, poor fit]. Besides, under setting [2], the AC50 is 0.58 µM [falling, single point].

In the case of `O=C(COC(=O)C1=COCCO1)Nc1cccc(Oc2ccccc2)c1`, the cell number change turned out to be 1.24%. The AC50 under setting [2] is 7.31 µM [rising, partial curve].

`CCOc1ccc(NC(=O)c2ccc(Cn3nc(C)cc3C)o2)cc1`: the AC50 under setting [2] was 29.1 µM [falling, single point].

For the molecule `Oc1ccccc1C1=Nc2ncnn2C(c2ccccc2)C1` (centres undefined), the cell number change was -32.3%. Under setting [1], the AC50 was 14.6 µM [falling, single point]. Besides, the AC50 under setting [2] is 6.51 µM [rising, partial curve, poor fit].

With `CCc1ccccc1NC(=O)CCC(=O)OCC(=O)c1ccc(-c2ccccc2)cc1`, the cell number change is -7.41%. For the same molecule, the AC50 under setting [2] is 3.66 µM [rising, single point].

For `COc1ccc(OC)c(S(=O)(=O)N/N=C\c2cn(CC(N)=O)c3ccccc23)c1`, the cell number change is 18.2%. Besides, the AC50 under setting [2] was 4.11 µM [rising, partial curve].

For the molecule `COc1ccc2c(c1)c(/C=N/Nc1nc3ccccc3[nH]1)c(C)n2C`, the cell number change is -66%. In addition, under setting [1], the concentration at half-maximal activity (AC50) is 10.3 µM [falling, partial curve]. Under setting [2], the AC50 is 16.4 µM [falling, partial curve].

With `CC(=O)/C=C/c1ccc2ccccc2n1`, the cell number change was -54.7%. Further, the AC50 under setting [1] was 29.1 µM [falling, single point]. Also, the AC50 under setting [2] was 8.2 µM [falling, partial curve].

Regarding `Nc1ccc(O)c([N+](=O)[O-])c1`, the cell number change was -16.3%. Moreover, the AC50 under setting [1] was 0.731 µM [falling, single point]. Besides, the AC50 under setting [2] is 1.16 µM [falling, single point].

Regarding `Cc1c(CC(Cl)(Cl)Cl)c2c(n1O)CC(C)(C)CC2=O`, the cell number change is -11.2%. Also, the AC50 under setting [2] is 3.66 µM [falling, full curve].

For the molecule `O=C(Nc1ccc(Nc2ccccc2)cc1)C(Cl)Cl`, under setting [2], the AC50 is 5.8 µM [falling, single point].

`CCOc1cc(/C=C2\SC(=S)N(NS(=O)(=O)c3ccccc3)C2=O)ccc1O`: the cell number change is -9.26%. Moreover, the AC50 under setting [1] was 0.00517 µM [falling, full curve, poor fit].

On to `COc1ccccc1CN(C)C(=O)c1cccc(S(=O)(=O)N2CCc3ccccc3C2)c1`, for which the cell number change worked out at 5.3%.

For the molecule `COc1ccccc1NC(=O)C(=O)NCc1ccccc1Cl`, the cell number change was 22%. In addition, the concentration at half-maximal activity (AC50) under setting [2] is 6.51 µM [rising, partial curve].

With `Cc1ccc(NC(=O)C(=O)NCc2ccc(/C=C(/C#N)C(=O)NCc3cccnc3)o2)cc1C`, the cell number change came out at 15.5%. For the same molecule, the AC50 under setting [1] is 2.91 µM [rising, single point]. Under setting [2], the AC50 is 0.082 µM [falling, full curve, poor fit].

In the case of `Cc1ccc2c(c1)c1c(n2CC(O)Cn2nc(C)c(Br)c2C)C(=O)CCC1` (centres undefined), the cell number change is -154%.

Turning to `N#Cc1c(F)cccc1N1CCN(Cc2ccc3c(c2)OCO3)CC1`, the cell number change was -21.9%. Moreover, the AC50 under setting [2] was 0.206 µM [rising, single point].

`Cc1ccc(C(=O)N(CC(=O)NC2CCCC2)Cc2cccs2)s1`: the cell number change was found to be 55.2%. In addition, the AC50 under setting [1] was 4.61 µM [rising, full curve]. In addition, the AC50 under setting [2] is 3.66 µM [rising, partial curve].

`COc1ccc(NC(=O)C2CCC(CNc3c(N4CCC(C)CC4)c(=O)c3=O)CC2)cc1OC` (centres undefined): the cell number change is 12%. Moreover, the AC50 under setting [2] was 32.6 µM [falling, single point].

Turning to `CS(=O)(=O)N1CCN(c2cnn(-c3ccccc3)c(=O)c2Cl)CC1`, the cell number change is -15.2%. For the same molecule, the AC50 under setting [2] is 1.84 µM [falling, partial curve, poor fit].

As to `CCOC(=O)c1c(NC(=O)CSc2nnc(CNc3ccc(F)cc3)o2)sc(C)c1C`, the cell number change is 15.7%. In addition, the AC50 under setting [1] was 0.0461 µM [rising, full curve, poor fit].

As to `Cc1cnc(C(=O)Nc2ccc3c(c2)CCC3)cn1`, the cell number change amounted to 29.7%. Under setting [2], the AC50 is 11.6 µM [rising, partial curve].

In the case of `COc1ccc(N)c2c1OCCC2=O`, the cell number change is -48.8%. Besides, the AC50 under setting [1] was 29.1 µM [falling, single point]. The AC50 under setting [2] is 29.1 µM [falling, single point].

As to `CCCn1cc(S(=O)(=O)c2ccc(Cl)cc2)c(=O)c2cc(OC)ccc21`, the cell number change was -15.9%.

With `CC(=O)c1ccc(NC(=S)NCc2ccc(Cl)cc2Cl)cc1`, the cell number change came to 13%. In addition, under setting [1], the AC50 was 1.84 µM [rising, partial curve].

Take `Cc1ccc(N(C)C(=O)N2CCN(S(=O)(=O)c3c(C)cc(C)cc3C)CC2)cc1`: the AC50 under setting [2] is 0.82 µM [falling, single point].

In the case of `CC(C)c1ccc(CNc2nc3nc4c(c(=O)n3[nH]2)CCC4)cc1`, the cell number change is -49.4%. Further, the AC50 under setting [1] is 13 µM [falling, partial curve, poor fit]. Moreover, under setting [2], the AC50 is 0.00461 µM [falling, full curve, poor fit].

As for `O=S(=O)(/N=S1/CC=CCN1S(=O)(=O)c1ccccc1)c1ccccc1` (centres undefined), the cell number change was -101%.

With `Cn1c(CCCCCN)nc2ccccc21`, the cell number change stood at 13.3%.

For the molecule `COc1ccc(-n2c(Cc3cc(=O)[nH]c(=O)[nH]3)nnc2SCC(=O)Nc2cc(C(F)(F)F)ccc2Cl)cc1`, the cell number change is 9.91%. Further, the AC50 under setting [1] is 0.731 µM [falling, single point]. Also, under setting [2], the AC50 was 0.731 µM [falling, single point].

Take `CC(=O)c1ccc(NCCC(=O)c2ccccc2)cc1`: the AC50 runs as follows: under setting [1], 0.103 µM [rising, full curve, poor fit]; under setting [2], 1.64 µM [rising, partial curve].

On to `CC1=CC(=O)C=C(C)C1=NOc1ccccc1[N+](=O)[O-]`, for which the cell number change turned out to be 1.03%. Further, the AC50 under setting [2] is 3.66 µM [falling, partial curve, poor fit].

For `COc1cc(/C=N/NC(=S)NCC2CCCO2)cc(OC)c1OC` (centres undefined), the cell number change came out at 12.6%. Also, the AC50 under setting [2] is 3.66 µM [rising, full curve, poor fit].

As for `CCNC(=O)c1cc2c(=O)n3cccc(C)c3nc2n(Cc2ccc(C)cc2)c1=N`, the cell number change amounted to 15.2%. Further, under setting [2], the AC50 was 1.46 µM [rising, partial curve].

Consider `CC1CC1C(=O)Nc1ccc(-c2ccccc2)cc1` (centres undefined), for which the cell number change was 0.912%.

With `O=C(Nc1nnc(SCc2cccc(F)c2)s1)c1ccco1`, the cell number change turned out to be 27.3%. Further, the AC50 under setting [1] was 0.82 µM [rising, full curve, poor fit]. In addition, under setting [2], the concentration at half-maximal activity (AC50) was 23.1 µM [rising, partial curve, poor fit].
